# Data reported in PubChem BioAssay AID1117319 (Southern Research Institute, 2015).
# By UniProt entry, the sequences of proteins in these tests, tags left out. Where a name states a change or a piece, a line headed by the entry shows the natural chain unless it says otherwise.
# UniProt P69720: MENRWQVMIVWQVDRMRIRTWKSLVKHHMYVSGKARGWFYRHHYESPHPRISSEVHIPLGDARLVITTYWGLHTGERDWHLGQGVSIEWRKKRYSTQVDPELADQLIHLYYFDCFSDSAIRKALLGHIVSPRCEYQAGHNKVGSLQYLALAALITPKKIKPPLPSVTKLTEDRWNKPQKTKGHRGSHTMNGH
# UniProt P69721: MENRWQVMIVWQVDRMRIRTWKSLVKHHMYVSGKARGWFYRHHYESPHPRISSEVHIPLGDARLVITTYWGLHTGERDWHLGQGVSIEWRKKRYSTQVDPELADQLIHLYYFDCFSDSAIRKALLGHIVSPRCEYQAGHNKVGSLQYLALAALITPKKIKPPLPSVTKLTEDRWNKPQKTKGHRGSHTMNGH
# UniProt P69722: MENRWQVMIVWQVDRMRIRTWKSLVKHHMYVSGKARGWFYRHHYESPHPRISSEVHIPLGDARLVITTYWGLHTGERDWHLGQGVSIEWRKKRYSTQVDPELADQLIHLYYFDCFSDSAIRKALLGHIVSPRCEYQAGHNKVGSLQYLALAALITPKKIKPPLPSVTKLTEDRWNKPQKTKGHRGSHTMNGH
# UniProt P69723: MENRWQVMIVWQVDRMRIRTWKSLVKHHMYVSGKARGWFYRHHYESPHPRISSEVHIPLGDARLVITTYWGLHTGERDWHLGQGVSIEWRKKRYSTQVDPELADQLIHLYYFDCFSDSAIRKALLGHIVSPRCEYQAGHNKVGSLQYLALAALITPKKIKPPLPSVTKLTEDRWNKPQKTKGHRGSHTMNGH
# UniProt Q9HC16: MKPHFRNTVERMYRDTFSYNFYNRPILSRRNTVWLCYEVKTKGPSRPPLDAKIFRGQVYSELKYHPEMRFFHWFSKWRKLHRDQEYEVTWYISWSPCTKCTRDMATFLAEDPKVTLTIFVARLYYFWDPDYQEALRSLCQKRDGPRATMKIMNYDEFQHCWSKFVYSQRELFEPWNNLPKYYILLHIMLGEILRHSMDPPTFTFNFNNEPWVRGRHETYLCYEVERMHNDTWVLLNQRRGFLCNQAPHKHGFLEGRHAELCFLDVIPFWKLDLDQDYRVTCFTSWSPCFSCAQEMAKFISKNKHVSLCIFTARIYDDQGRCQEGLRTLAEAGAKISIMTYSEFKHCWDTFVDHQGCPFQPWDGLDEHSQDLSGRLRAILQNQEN
# Out of some 260,000 compounds screened, about 1,500 (0.58%) were called active. This list was built around the results that the source calls inconclusive (neither active nor inactive); the mix of calls is not that of the screen.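 The calls were made as follows: active = inhibition above a set limit at one or more doses, reproduced on every date tested; inconclusive = results disagree between test dates, or hit never tested in dose response; inactive = the rest.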
# Biological target: Virion infectivity factor (Human immunodeficiency virus type 1 group M subtype B (isolate BH10)) + Virion infectivity factor (Human immunodeficiency virus type 1 group M subtype B (isolate BRU/LAI)) + Virion infectivity factor (Human immunodeficiency virus type 1 group M subtype B (isolate PCV12)) + Virion infectivity factor (Human immunodeficiency virus type 1 group M subtype B (isolate HXB2)) + DNA dC->dU-editing enzyme APOBEC-3G (Homo sapiens) (UniProt P69720+P69721+P69722+P69723+Q9HC16)
# Test: inhibitors of Vif binding to APOBEC3G peptide, primary screen, biochemical, TR-FRET, GST-Vif 1-94, biotin-A3G peptide, dose response retest (AID 1117319);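 also: Vif residues 1-94 fused to GST binding biotinylated APOBEC3G peptide 110-148; 0% = full assay without inhibitor and 100% = GST in place of GST-Vif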
# Details: hits give high values
row,Structure (SMILES),inhibition
1,O=C(/C=C/c1ccc(Br)o1)NCCCN1CCOCC1,inconclusive: 52.4%
2,Cc1ccc(/C=N\NC(=O)c2cc(OCC(F)(F)F)ccc2OCC(F)(F)F)cc1,inconclusive: 61.9%
3,O=C(NCCCN=C1NS(=O)(=O)c2ccccc21)c1ccc(S(=O)(=O)N2CCCCC2)cc1,inconclusive: 39.8%
4,c1ccc(Nc2nc(NCCN3CCOCC3)nc(Nc3ccccc3)n2)cc1,inconclusive: 61.1%
5,Brc1ccc(Sc2cnc3ccccc3n2)cc1,inconclusive: 39.2%
6,O=C(Nc1ccc(S(=O)(=O)N2CCCC2)cc1)C1COc2ccccc2O1 (centres undefined),inconclusive: 35.4%
7,Cc1cc(N2CCOCC2)c2c(N)c(Br)cc(C)c2n1,inconclusive: 35.6%
8,CC1CC(C)(C)OC(C[N+]2(C)CCCCC2)O1 (centres undefined),inconclusive: 45.1%
9,Cc1ccc2c3c(c(SCC(=O)Nc4nonc4C)nc2c1)CCCC3,inconclusive: 48.5%
10,Cc1cc(NC(=O)C2CC(c3ccc(F)cc3)=NO2)no1 (centres undefined),inactive: 0.56%
11,CCc1nc2sc3ccccc3c(=O)c2c(=O)n1CCOC,inconclusive: 47.3%
12,C=CCN1C=C2C(=O)C(C)(OC(=O)C3CCCC3)C(=O)C=C2C=C1c1ccsc1 (centres undefined),inactive: 22.2%
13,O=C(CSc1nnc(SCc2ccccc2)s1)NNC(=S)Nc1ccccc1,inconclusive: 49.2%
14,Nc1nc2ccccc2n1C(=O)c1ccco1,inconclusive: 44.8%
15,C=CCc1c(C)nc(SCCC)[nH]c1=O,inconclusive: 44.9%
16,O=C(Nc1ccc(Cl)cn1)c1ccc([N+](=O)[O-])o1,inconclusive: 48.4%
17,C(=N\Nc1nc2ccccc2[nH]1)/C1CCCCC1,inconclusive: 43.4%
18,COc1ccc(-c2c(N)cnc(C(=O)O)c2C)c(OCc2ccccc2)c1OC,inactive: 2.47%
19,N#Cc1ccccc1NC(=O)CNc1ccccc1N1CCCCC1,inconclusive: 36.5%
20,O=C(Nc1ccccc1Cl)Nc1ccnn1C1CCN(C(=O)c2cscn2)CC1,inactive: 5.94%
21,Cn1c(SCC(=O)N/N=C/C=C/c2ccco2)nc2ccccc21,inconclusive: 48.9%
22,CCCCNCc1cc(OCC)c(OCC)cc1Br,inconclusive: 53.3%
23,Cc1ccnc2ccc(P(=O)(c3ccccc3)c3ccccc3)cc12,inactive: -4.5%
24,O=C(CCNC(=O)c1ccc([N+](=O)[O-])cc1)Nc1cc(Cl)ccc1N1CCOCC1,inactive: -3.46%

row,Structure (SMILES),inhibition
1,O=C(Cc1c(F)cccc1Cl)c1ccc(O)cc1O,inconclusive: 33.2%
2,COc1cccc(OC)c1NC(=O)C1CCCN1C(=O)Nc1cccc(Cl)c1 (centres undefined),inactive: -0.22%
3,Cc1cccc(OCCCSc2nc3ccc(C)cc3[nH]2)c1,inconclusive: 50%
4,COc1ccc(Br)cc1S(=O)(=O)N(CC(=O)N1CCOCC1)c1ccccc1,inconclusive: 47.7%
5,CC(NC(=O)c1c(Cl)cnn1C)C1CCCO1 (centres undefined),inconclusive: 44.3%
6,COc1ccccc1N1CCN(C(=O)CCCNC(=O)Cn2cnc3sc(C)c(C)c3c2=O)CC1,inconclusive: 62.2%
7,CC(=O)c1ccc(NC(=S)NC(C)c2ccc(Cl)cc2Cl)cc1 (centres undefined),inconclusive: 37.8%
8,CCOc1ccccc1N=C1NC(=O)CS1,inconclusive: 34%
9,O=C(NC(=S)Nc1ccccc1N1CCCC1)c1ccccc1[N+](=O)[O-],inconclusive: 35.1%
10,Cc1nc2ncnn2c(C)c1CCC(=O)Nc1csc(N)n1,inconclusive: 35.3%
11,COc1ccccc1N1CC(C)(C)C(=O)N(C(=O)c2ccc(Cl)cc2)C1=S,inconclusive: 41.9%
12,COc1cc(O)c2c(c1)OC(c1ccc(O)cc1)CC2=O (centres undefined),inconclusive: 47.2%
13,Cc1cnnn1-c1ccc([N+](=O)[O-])cc1,inconclusive: 51.5%
14,CCSc1nnc(N(CCC(=O)O)CCC(=O)O)s1,inconclusive: 37.6%
15,COc1ccc(-c2nc(N)n(S(=O)(=O)c3ccc(C)cc3)n2)cc1,inconclusive: 48%
16,COc1cccc(-n2c(SCC#N)nnc2-c2cnccn2)c1,inconclusive: 42.1%
17,Cc1cccc(-n2nnnc2SCC(=O)c2cc(C)n(CC3CCCO3)c2C)c1 (centres undefined),inactive: 22.8%
18,CSC(=S)N/N=C/c1ccc(Br)cc1,inconclusive: 49.3%
19,Cc1cccc(/C=C2\CCC(C3CCCC3)C2=O)c1 (centres undefined),inconclusive: 41.9%
20,C/C=C/C(=O)Nc1cccc(C(F)(F)F)c1,inconclusive: 42.1%
21,Cc1ccc(-n2nnnc2SCC(=O)NC(=O)Nc2ccc3c(c2)OCCO3)cc1,inconclusive: 35.4%
22,O=C(Nc1ccccc1N1CCN(c2ccc(F)cc2)CC1)c1ccccc1,inconclusive: 44.6%
23,COc1ccc(NC(=O)c2cc(S(=O)(=O)N3CCS(=O)(=O)CC3)ccc2Cl)cc1,inconclusive: 33.6%
24,O=C1C(Cc2ccccc2)NC(=S)N1c1ccccc1 (centres undefined),inactive: -3.85%

# Among those listed so far, these contain bromine:
row,Structure (SMILES),inhibition
1,O=C(/C=C/c1ccc(Br)o1)NCCCN1CCOCC1,inconclusive: 52.4%
5,Brc1ccc(Sc2cnc3ccccc3n2)cc1,inconclusive: 39.2%
7,Cc1cc(N2CCOCC2)c2c(N)c(Br)cc(C)c2n1,inconclusive: 35.6%
22,CCCCNCc1cc(OCC)c(OCC)cc1Br,inconclusive: 53.3%
4,COc1ccc(Br)cc1S(=O)(=O)N(CC(=O)N1CCOCC1)c1ccccc1,inconclusive: 47.7%
18,CSC(=S)N/N=C/c1ccc(Br)cc1,inconclusive: 49.3%

# The list goes on.

row,Structure (SMILES),inhibition
1,CC(=O)c1c(C)nc2ccc(Cl)cn12,inconclusive: 38.4%
2,CC(=O)Nc1ccc(NC(=O)CN2CCN(c3ccccn3)CC2)cc1,inactive: -2.22%
3,COc1ccc(N(CC(=O)Nc2cc(C)on2)S(=O)(=O)c2cc(C)ccc2C)cc1,inconclusive: 33.7%
4,C=CCNC(=O)C(=O)N/N=C/c1ccco1,inconclusive: 36.7%
5,COc1cc(-c2cc(OC)c3c(C)oc(C)c3c(=O)c2)ccc1O,inconclusive: 47.3%
6,CC(OC(=O)c1cc(=O)[nH]c2ccccc12)c1ccccc1 (centres undefined),inconclusive: 33.3%
7,Cc1nnc(SCC(=O)Nc2ccc3c(c2)OCCO3)s1,inconclusive: 49.3%
8,Cc1ccc(-n2nnnc2SCC(=O)N2CC(=O)Nc3ccccc32)cc1,inconclusive: 52.6%
9,COc1cccc(-c2cn3nc(C)c(C)nc3n2)c1,inconclusive: 34.8%
10,CC1CCC(NC(=O)C2CCC(CNc3c(N4CCCCC4)c(=O)c3=O)CC2)CC1 (centres undefined),inconclusive: 54.2%
11,Cc1nc(Nc2ccccc2)c2oc3ccc(Cl)cc3c2n1,inactive: -10.6%
12,O/N=C/c1cc(Br)cc(Br)c1OCc1ccccc1,inconclusive: 38.6%
13,CCn1c(O)c(N=NC(=O)CNC(=O)/C=C/c2ccco2)c2ccccc21,inconclusive: 33.9%
14,N#Cc1ccsc1NC(=O)CSc1ncn[nH]1,inconclusive: 37.5%
15,CCOc1ccc(CCNC(=O)c2oc3c(c2C)-c2[nH]ncc2CC3)cc1OCC,inconclusive: 36.1%
16,Cc1ccc(S(=O)(=O)N2CCCCC2)cc1NC(=O)c1cccs1,inconclusive: 44.2%
17,CCOc1ccccc1C(=O)NCC(=O)NCC1CCCCC1,inconclusive: 34.4%
18,CCC(C)(C)NC(=O)c1cc([N+](=O)[O-])ccc1N1CCCCC1,inconclusive: 39.6%
19,CCOC(=O)CN1C(=O)N[C@@H](c2ccc(Br)cc2)C(C(C)=O)=C1C,inconclusive: 41.5%
20,O=C(CNC(=O)c1ccco1)OCc1c(F)cccc1Cl,inconclusive: 53.9%
21,O=C(NC1CCCCC1)c1nc2c(nnn2Cc2ccccc2Cl)c(=O)[nH]1,inconclusive: 50.1%
22,O=C(c1ccc2nc(-c3ccco3)c(-c3ccco3)nc2c1)N1CCN(c2ccccc2)CC1,inconclusive: 56%
23,Cc1c(NC(=O)c2ccc3c(c2)OCO3)c(=O)n(-c2ccccc2)n1C,inconclusive: 55.3%
24,O=C(CSc1nc2c(c(=O)n1-c1ccc(Br)cc1)SCC2)Nc1nccs1,inconclusive: 37.1%

# Rewritten as tab-separated lines: entries from further up
row	Structure (SMILES)	inhibition
2	COc1cccc(OC)c1NC(=O)C1CCCN1C(=O)Nc1cccc(Cl)c1 (centres undefined)	inactive: -0.22%
3	Cc1cccc(OCCCSc2nc3ccc(C)cc3[nH]2)c1	inconclusive: 50%

# Next part

row,Structure (SMILES),inhibition
1,COc1ccc(/C=C2/C(=N)N3C(=NC2=O)Sc2cc(S(C)(=O)=O)ccc23)cc1OC,inactive: -1.27%
2,O=C(CN1CCOCC1)Nc1scc2c1c(=O)oc1ccccc12,inconclusive: 41.6%
3,NNC(=O)c1sc(-c2ccccc2)cc1N,inconclusive: 36.6%
4,CCOc1ccc(-n2c(=O)c3c4c(sc3n(CC(=O)NCc3ccco3)c2=O)CCC4)cc1,inactive: -4.88%
5,C/C(=N\NC(=S)NCc1ccccc1)c1ccc(C(C)(C)C)cc1,inactive: 9.19%
6,O=C(Nc1ccsc1C(=O)N1CCCCCC1)c1ccccc1,inconclusive: 36%
7,O=C1N=C(N2CCOCC2)S/C1=C/c1ccc(-c2ccccc2Cl)o1,inactive: 7.88%
8,FC(F)(F)c1ccc(-n2cnc3ccccc32)nc1,inconclusive: 35%
9,Cc1cc(C)nc(Oc2ccc(Br)cc2)n1,inconclusive: 53.2%
10,COc1ccc(OC)c(Nc2nc(-c3sc(C)nc3C)cs2)c1,inconclusive: 40.1%
11,O=C(COc1cccnc1[N+](=O)[O-])N1CCc2ccccc21,inconclusive: 52.7%
12,CCCc1cc(=O)oc2cc(C)cc(OC(C)C(=O)NCc3ccccn3)c12 (centres undefined),inconclusive: 33.4%
13,CC(C)CCNC(=O)CSc1nnc(-c2ccc(S(=O)(=O)N3CCCC3)cc2)n1C,inconclusive: 56.4%
14,CC(=O)c1ccc2c(c1)N(C)c1ccccc1S2,inconclusive: 34.1%
15,c1ccc(-c2ccnc3nc(-n4cccc4)nn23)cc1,inconclusive: 59.6%
16,Oc1ccc(C=NC2CCCCC2)cc1,inconclusive: 57.4%
17,CC(C)C(OC(=O)c1cccs1)C(=O)NCCc1ccccc1 (centres undefined),inconclusive: 47.6%
18,N#Cc1cc2c(N)c(C(=O)Nc3ccccc3)sc2nc1N,inconclusive: 52.3%
19,O=C(NC(=S)Nc1cc(Cl)ccc1O)c1cccc(Br)c1,inconclusive: 51%
20,Cc1ccc(C(=O)N/N=C\c2ccccn2)cn1,inconclusive: 58.2%
21,CCOc1c(Cl)cc(CNCc2ccccn2)cc1OC,inconclusive: 54.5%
22,COc1cc(=O)[nH]c(SCc2c(F)c(F)c(F)c(F)c2F)n1,inconclusive: 58.9%
